Data as given in PMC6382882.
Results are given in words; binding and its absence hold for the method and conditions named.

Biological target: apo mH0ACPa, N-terminally extended A1-type ACP domain from module 5 of MLSA1 (Mycobacterium ulcerans) (UniProt Q6MZA4)
Test: 15N NMR nuclear spin relaxation (rotational correlation time); 15N-labelled apo mH0ACPa in phosphate buffer, 298 K, Bruker DRX500; overall rotational correlation time 8.4 ns; both purified

apo mH0ACPa, N-terminally extended A1-type ACP domain from module 5 of MLSA1 (from UniProt Q6MZA4 11087-11185) (domain or fragment)
binding: no binding (tested: 200–800 μM)
